Laboratory results: PubChem BioAssay AID1508597 (Cure First, 2020)
Assay: 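Knock-downs altering ovarian cancer cell survival with or without PARP inhibitor rucaparib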 (primary screen). Cell system: human ovarian carcinoma lines grown from tumours: OCI-P5x (papillary serous) and OCI-C5x (clear cell). Reagent: siRNA pool against human genes, 1.25 pmol siRNA per well. Duration: 72 h or 96 h, depending on the cell culture. Conditions: rucaparib 20 µM (about IC30) or vehicle, present until read-out. Rucaparib or vehicle: Vehicle. Cell line: OCI-C5x (clear cell). Read-out: 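Luminescent ATP-based viability assay read 72 or 96 h after transfection, depending on culture, given as normalised percent viability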. Reading the numbers: viability, normalised: higher = more viable cells remaining. Hit rule: 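Active when normalised viability falls below 80 percent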. Calls: active = viability under 80%; inactive = viability 80% or more.
Shown is a random part of the about 2,100 reagents, in one setting of the screen. 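Calls flag viability under 80% in either arm, not effects specific to rucaparib; the reference for percent is not stated.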 Some reagents were tested in more than one well and are listed for each. Not given: the 100% reference.

Gene | technical replicate | viability, normalised (%) | activity call
SOX1 (GeneID 6656) | 1 | 43.9 | active
SOX1 (GeneID 6656) | 2 | 32.1 | active
SOX1 (GeneID 6656) | 3 | 49.6 | active
WAPL (GeneID 23063) | 1 | 72.1 | active
WAPL (GeneID 23063) | 2 | 50.5 | active
WAPL (GeneID 23063) | 3 | 53.5 | active
PIM3 (GeneID 415116) | 1 | 30.8 | active
PIM3 (GeneID 415116) | 2 | 53.3 | active
PIM3 (GeneID 415116) | 3 | 34.3 | active
BACC1 (GeneID 124944) | 1 | 53.8 | active
BACC1 (GeneID 124944) | 1 | 60.7 | active
BACC1 (GeneID 124944) | 2 | 32.5 | active
BACC1 (GeneID 124944) | 2 | 59.9 | active
BACC1 (GeneID 124944) | 3 | 41.8 | active
BACC1 (GeneID 124944) | 3 | 53.6 | active
ZZZ3 (GeneID 26009) | 1 | 57.7 | active
ZZZ3 (GeneID 26009) | 2 | 73.7 | active
ZZZ3 (GeneID 26009) | 3 | 62.8 | active
PHF6 (GeneID 84295) | 1 | 60.7 | active
PHF6 (GeneID 84295) | 2 | 37.1 | active
PHF6 (GeneID 84295) | 3 | 36.7 | active
RAD54B (GeneID 25788) | 1 | 48.9 | active
RAD54B (GeneID 25788) | 1 | 53.9 | active
RAD54B (GeneID 25788) | 2 | 43.5 | active
RAD54B (GeneID 25788) | 2 | 76 | active
RAD54B (GeneID 25788) | 3 | 49 | active
RAD54B (GeneID 25788) | 3 | 57 | active

Records above whose target name begins with B or b:
Gene | technical replicate | viability, normalised (%) | activity call
BACC1 (GeneID 124944) | 1 | 53.8 | active
BACC1 (GeneID 124944) | 1 | 60.7 | active
BACC1 (GeneID 124944) | 2 | 32.5 | active
BACC1 (GeneID 124944) | 2 | 59.9 | active
BACC1 (GeneID 124944) | 3 | 41.8 | active
BACC1 (GeneID 124944) | 3 | 53.6 | active

The listing continues.
Gene | technical replicate | viability, normalised (%) | activity call
CARMIL1 (GeneID 55604) | 1 | 55 | active
CARMIL1 (GeneID 55604) | 2 | 61.6 | active
CARMIL1 (GeneID 55604) | 3 | 55.4 | active
MBD2 (GeneID 8932) | 1 | 51 | active
MBD2 (GeneID 8932) | 2 | 44.8 | active
MBD2 (GeneID 8932) | 3 | 39.2 | active
ONECUT1 (GeneID 3175) | 1 | 30.1 | active
ONECUT1 (GeneID 3175) | 2 | 38.1 | active
ONECUT1 (GeneID 3175) | 3 | 54.3 | active
PCBD1 (GeneID 5092) | 1 | 106 | inactive
PCBD1 (GeneID 5092) | 2 | 53.9 | active
PCBD1 (GeneID 5092) | 3 | 50 | active
KIF11 (GeneID 3832) | 1 | 23.1 | active
KIF11 (GeneID 3832) | 2 | 28.5 | active
KIF11 (GeneID 3832) | 3 | 24.4 | active
SLC25A26 (GeneID 115286) | 1 | 65.1 | active
SLC25A26 (GeneID 115286) | 2 | 47.5 | active
SLC25A26 (GeneID 115286) | 3 | 63.8 | active
PTTG2 (GeneID 10744) | 1 | 46.2 | active
PTTG2 (GeneID 10744) | 2 | 27.3 | active
PTTG2 (GeneID 10744) | 3 | 37.2 | active
PCNA (GeneID 5111) | 1 | 49.7 | active
PCNA (GeneID 5111) | 2 | 48.1 | active
PCNA (GeneID 5111) | 3 | 39.5 | active
SMYD5 (GeneID 10322) | 1 | 56.9 | active
SMYD5 (GeneID 10322) | 2 | 38.2 | active
SMYD5 (GeneID 10322) | 3 | 60.9 | active
CHD4 (GeneID 1108) | 1 | 47 | active
CHD4 (GeneID 1108) | 2 | 44.2 | active
CHD4 (GeneID 1108) | 3 | 38.6 | active
